Reference: the supplement of paper PMC3334620
In all, about 33,000 sequences were measured (“E-score (-0.5 to 0.5)”: median about -0.0014, highest 2% from about 0.25 on). The list shows a part of the results.

molecular target: T1, Cad1 (UniProt P24813); experiment: PBM E-score (8-mer binding enrichment) (E-score (-0.5 to 0.5)); higher = stronger / more preferred TF binding; conditions: protein concentration: 100 nM; construct: GST-full length
T1 sequence: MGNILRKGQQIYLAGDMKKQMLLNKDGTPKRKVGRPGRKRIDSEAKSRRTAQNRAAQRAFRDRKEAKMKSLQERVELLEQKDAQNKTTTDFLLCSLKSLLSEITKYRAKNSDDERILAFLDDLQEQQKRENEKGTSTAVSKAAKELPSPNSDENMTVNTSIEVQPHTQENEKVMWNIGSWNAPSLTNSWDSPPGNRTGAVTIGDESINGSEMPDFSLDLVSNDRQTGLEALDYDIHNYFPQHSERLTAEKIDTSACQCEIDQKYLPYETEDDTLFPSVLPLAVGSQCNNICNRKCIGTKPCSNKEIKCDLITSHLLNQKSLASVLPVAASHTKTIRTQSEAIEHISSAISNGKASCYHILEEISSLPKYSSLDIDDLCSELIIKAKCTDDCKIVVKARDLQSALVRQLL
In short: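 Each ungapped eight-base word and its reverse complement, pooled, received an E-score from the Universal PBM Analysis Suite. Underlying scans, normalised with masliner, recorded fluorescent anti-GST bound to GST-tagged yeast transcription factors. These were applied at about 100-200 nM to universal all-10-mer Agilent arrays double-stranded by primer extension.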

| Sequence | PBM E-score |
| --- | --- |
| ATGTTTCG | 0.198 |
| CGTGGTAA | 0.0322 |
| ATTTGTGC | 0.148 |
| CCACCTGG | -0.251 |
| ACCTACAG | -0.00297 |
| CTCCGTGA | 0.036 |
| ACATACAG | 0.127 |
| CCAATTAC | 0.0696 |
| AATGGTAG | -0.0146 |
| GACCACAA | -0.0648 |
| GTCGCTGA | -0.0513 |
| CATCAAGG | -0.123 |
| GTACTAAC | 0.142 |
| CCGAAAAC | -0.0183 |
| AAGACTGA | -0.164 |
| GAGACTAC | -0.153 |
| AGCCCCCC | -0.421 |
| ACGGCAAA | 0.124 |
| CAATATCG | 0.163 |
| ACCCTTTA | -0.0467 |
| CGGAGCCA | -0.0948 |
| CCATTACA | 0.129 |
| GAGGGCAC | -0.143 |
| ATTATAAG | 0.186 |
| GCTTAGGA | 0.0729 |

Looked up one by one from the list above:

| Sequence | PBM E-score |
| --- | --- |
| CATCAAGG | -0.123 |
| ATTATAAG | 0.186 |
| CTCCGTGA | 0.036 |

Additional entries

| Sequence | PBM E-score |
| --- | --- |
| AAAAGCGA | 0.19 |
| GTCCTTGA | 0.0279 |
| CCTATGCG | -0.0024 |
| AACCGTCG | 0.115 |
| ATCCCGCA | 0.0328 |
| CATCGTGC | 0.162 |
| GCATCTTA | 0.128 |
| CGCAGAGC | -0.12 |
| CTAACTGC | -0.0676 |
| AACCCCCC | -0.448 |
| ATGCCCCC | -0.362 |
| CATAGCCC | -0.334 |
| ATAAACTG | -0.0144 |
| TAGAATAA | 0.145 |
| CCGGAAGG | -0.0832 |
| CTTTAACC | -0.0991 |
| AACTATGC | 0.0465 |
| ACGTTGAG | 0.102 |
| AAGCCAAA | 0.0472 |
| CATCTGGC | -0.0951 |
| AAATTATA | 0.237 |
| CTGGAATC | -0.0416 |
| TCATTGAA | -0.151 |
| GAGCGGGA | -0.176 |
| CATTTCGA | 0.0952 |

| Sequence | PBM E-score |
| --- | --- |
| CACAGGCC | -0.0883 |
| GGGCACAC | -0.172 |
| AAATGCTG | 0.186 |
| AGCGATGG | -0.0366 |
| GAATAAGA | 0.0517 |
| CTGGCCGC | 0.0327 |
| CTCAGTAA | -0.0268 |
| AATTAAGC | 0.108 |
| CCTGAGTA | 0.187 |
| CTTGGTGA | 0.0215 |
| CGGTCTTC | -0.123 |
| GTGATCGA | 0.171 |
| GGAGTATA | 0.0846 |
| TCCGGCGA | 0.215 |
| GACCTCCA | -0.00085 |
| CCGGACAA | 0.137 |
| AACGCGGC | 0.00605 |
| GTCCCTTA | -0.0332 |
| ATTGGCCA | 0.0679 |
| TGGTGCAA | -0.318 |
| ATGAATGA | 0.13 |
| GGAAAGCC | 0.0347 |
| CCCATGAG | -0.0462 |
| GAAGATGA | 0.00518 |
| ACCGTACA | 0.0124 |

Shown tab-delimited: part of the list above
Sequence	PBM E-score
GGGCACAC	-0.172
AAATGCTG	0.186
AGCGATGG	-0.0366

Taken from above.
Value of CGGAGCCA under PBM E-score: -0.0948
Value of TCATTGAA under PBM E-score: -0.151
Value of AAAAGCGA under PBM E-score: 0.19
Value of AAGCCAAA under PBM E-score: 0.0472

Further entries:

| Sequence | PBM E-score |
| --- | --- |
| GAGAGCTA | -0.0452 |
| AACGACGA | 0.133 |
| CTGACTAC | 0.0363 |
| ACTAAACG | 0.0217 |
| GTACGCCA | -0.198 |
| CTCTATAA | -0.0783 |
| ATAAGCAC | 0.208 |
| TACTGACA | 0.215 |
| CATATAGG | -0.112 |
| ACTGTGAT | -0.0504 |
| ACCGGCGA | 0.194 |
| CTGGGTGC | -0.317 |
| ACATCATC | 0.209 |
| GGCCAATA | 0.0295 |
| AAACTATC | 0.0983 |
| CTCGTAGA | -0.299 |
| AGCTTACA | 0.351 |
| CGATTCCG | -0.0339 |
| GAAGTGGA | -0.0722 |
| AAACCAGC | 0.0851 |
| TAGCGGCA | 0.0985 |
| GGGAGGAA | -0.0506 |
| AAATACCG | 0.0761 |
| CACGTCCC | -0.157 |
| AGGTTGAA | 0.0887 |

| Sequence | PBM E-score |
| --- | --- |
| AAGAGCTG | 0.0198 |
| TGTAGGAA | -0.0802 |
| ATGTCCTA | 0.0405 |
| ACATCCCT | 0.0496 |
| CCTGTTTC | -0.0261 |
| CCGAAATA | 0.253 |
| ATTGAAAG | 0.0649 |
| AGCAGTCA | -0.123 |
| TTATAGAA | 0.167 |
| CGCCACAG | -0.16 |
| AGGCCCAA | 0.0278 |
| TATCCATA | 0.232 |
| CCTGCAGC | 0.0112 |
| CCGTTACA | 0.161 |
| GCCGCATA | 0.0495 |
| AAACCGTG | 0.0205 |
| ACTTTTGG | 0.0896 |
| TATCGGGA | 0.0969 |
| AAATAGAT | 0.168 |
| AGTTAGTG | 0.212 |
| TGCCAACA | -0.0605 |
| ATTGACCC | 0.00304 |
| ACGGCGCT | -0.0736 |
| ACTTAAGG | 0.00123 |
| ATAGGTGG | -0.153 |

| Sequence | PBM E-score |
| --- | --- |
| ACTCAACG | -0.0251 |
| ACCCCAAA | 0.0445 |
| CCTAAATA | -0.121 |
| AGCACCTC | -0.0619 |
| GGCTCATA | 0.0877 |
| CTGATAGC | -0.057 |
| CATTCCGA | 0.179 |
| CAAATCAG | 0.155 |
| GGGGCCCA | -0.32 |
| TACGACGA | 0.0477 |
| AAGATCTG | 0.0512 |
| CTCCCAAA | -0.0721 |
| AAAATGGT | 0.174 |
| CGCATCAA | 0.023 |
| AAACAAAC | 0.0914 |
| AACAAGGG | -0.125 |
| ATATTTCA | 0.212 |
| GGACGAAC | 0.207 |
| CCGAATAC | -0.0293 |
| AAATAATG | 0.152 |
| GTAAGATA | 0.18 |
| ACCCTGGC | -0.0731 |
| CGTTGTAA | -0.00029 |
| ATATGGTA | 0.0411 |
| AACGTAGT | -0.0796 |

| Sequence | PBM E-score |
| --- | --- |
| CACATTGA | 0.098 |
| GCTAAGCA | 0.002 |
| ACTACATC | 0.0704 |
| CTCGTCAC | 0.164 |
| GATCACAA | 0.225 |
| ATATACAA | 0.161 |
| TATCAAAA | 0.224 |
| CCAAGCAC | 0.0229 |
| GCCCGAGA | 0.172 |
| CAACTTTA | 0.167 |
| GAAACGGC | 0.0975 |
| ACGATCGT | -0.0266 |
| AGAACCAC | -0.163 |
| GTGTGTAA | 0.0205 |
| AAGGCCAT | 0.0298 |
| CTGCGCAC | 0.119 |
| CCTCTTGA | -0.15 |
| GGCCTGTA | -0.0887 |
| GTGGGGAA | 0.109 |
| GCGAAACA | 0.165 |
| ACCATTGC | -0.0675 |
| CGAGTTAC | 0.0853 |
